According to article PMC6868150:
For at least one entry, the source does not settle the construct or the ends of the probe.

System: GST-MZD (Zn-finger domains of Mamo)
Test: EMSA
Settings: 20 mM HEPES pH 7.6, 1 mM EDTA, 10 mM (NH4)2SO4, 1 mM DTT, 0.2% Tween20, 30 mM KCl, 1 ug poly[d(I-C)], 0.1 ug poly-L-lysine; 60 ng protein, 30 fmol probe; 15 min, 25 C; recombinant protein; protein details: N-terminal GST (pGEX); label: DIG

ATTTGTTTTTCCTGCGTTGCCTGCTGAGT (double strand) [vas-A]
binding result: binds
